For 1 molecule, binding results are on record in paper PMC9619225, “Novel transketolase inhibitor oroxylin A suppresses the non‐oxidative pentose phosphate pathway and hepatocellular carcinoma tumour growth in mice and patient‐derived organoids” (Clinical and Translational Medicine, 2022).

The target of this assay is p53 (UniProt P04637). The assay is described as follows: co-IP; only mentioned in the discussion; no cells, antibodies, conditions or figure given.

These are yes or no findings as the source states them, for the method shown. In cells and extracts the contact can be indirect.

B1: Transketolase (enzyme, UniProt P29401 1-623)
chain: MESYHKPDQQKLQALKDTANRLRISSIQATTAAGSGHPTSCCSAAEIMAVLFFHTMRYKSQDPRNPHNDRFVLSKGHAAPILYAVWAEAGFLAEAELLNLRKISSDLDGHPVPKQAFTDVATGSLGQGLGAACGMAYTGKYFDKASYRVYCLLGDGELSEGSVWEAMAFASIYKLDNLVAILDINRLGQSDPAPLQHQMDIYQKRCEAFGWHAIIVDGHSVEELCKAFGQAKHQPTAIIAKTFKGRGITGVEDKESWHGKPLPKNMAEQIIQEIYSQIQSKKKILATPPQEDAPSVDIANIRMPSLPSYKVGDKIATRKAYGQALAKLGHASDRIIALDGDTKNSTFSEIFKKEHPDRFIECYIAEQNMVSIAVGCATRNRTVPFCSTFAAFFTRAFDQIRMAAISESNINLCGSHCGVSIGEDGPSQMALEDLAMFRSVPTSTVFYPSDGVATEKAVELAANTKGICFIRTSRPENAIIYNNNEDFQVGQAKVVLKSKDDQVTVIGAGVTLHEALAAAELLKKEKINIRVLDPFTIKPLDRKLILDSARATKGRILTVEDHYYEGGIGEAVSSAVVGEPGITVTHLAVNRVPRSGKPAELLKMFGIDRDAIAQAVRGLITKA
For B1, the binding result is “no binding”.
